PubChem BioAssay AID504793 | Drosophila RNAi Screening Center | 2011
In all, the deposit lists about 23,000 reagents; below is a random part of those that have a named target and a result. Over the whole deposit, 62 (0.27%) got an active call. 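Calls come from follow-up tests whose scores are not deposited, so confirmed genes may have low counts here; counts are not normalised per plate.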 The raw values are shown without normalisation. A number with no mark means an inactive call. Reagents against one gene are numbered here.

Aim: 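Whole-genome screen for parts of the DNA damage checkpoint at G2/M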 (primary screen)
System: Drosophila S2R+ cells
Reagents: long dsRNA against Drosophila genes, about 0.25 µg dsRNA per well
Time to read-out: 4 days of dsRNA, then 4 hours of drug before read-out
Treatment: doxorubicin 0.5 µM for 4 hours to cause double-strand breaks, in cells also given a low, harmless dose of dsRNA against nbs to sensitise the assay
Detection: 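Per-well count of mitotic cells stained for phospho-histone H3 after doxorubicin exposure, used as mitotic index; counts are raw and not normalised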
Reading the numbers: mitotic cells: higher = more cells in mitosis, weaker G2 arrest
Hit rule: 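Genes are called active only when high mitotic counts were reproduced with independent dsRNAs and mitosis was checked for delay without damage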
Meaning of the calls: active = confirmed in follow-up tests; inactive = not confirmed

CG33465 showed mitotic cells, replicate 1 = 2. Depletion of CG1360 #1 resulted in: mitotic cells, replicate 1 = 8. For CG1360 #2 the deposit lists mitotic cells, replicate 1 = 8. Knock-down of CG17883 came out at: mitotic cells, replicate 1 = 8. Against CG17260 #1, the values are mitotic cells, replicate 1 = 5. Knock-down of CG17260 #2 came out at: mitotic cells, replicate 1 = 2.

Apt1 showed mitotic cells, replicate 1 = 5. nAChRalpha2 #1 gave mitotic cells, replicate 1 = 7. nAChRalpha2 #2 gave mitotic cells, replicate 1 = 5. After knock-down of NPF the results were mitotic cells, replicate 1 = 4. For mrt #1, the entry reads mitotic cells, replicate 1 = 6. Silencing of mrt #2 gave: mitotic cells, replicate 1 = 5.

Depletion of Cf2 #1 resulted in: mitotic cells, replicate 1 = 10. After knock-down of Cf2 #2, the record shows mitotic cells, replicate 1 = 5.
